# The supplement of paper PMC12819154, “High-throughput peptide-centric local stability assay extends protein–ligand identification to membrane proteins, tissues and bacteria” (Nature Structural & Molecular Biology, 2025)
# Chains of the proteins cited; added tags and fusions are not shown. Lines headed by an entry give the natural chain unless they say otherwise; changes in a name come on top.
# UniProt Q791V5: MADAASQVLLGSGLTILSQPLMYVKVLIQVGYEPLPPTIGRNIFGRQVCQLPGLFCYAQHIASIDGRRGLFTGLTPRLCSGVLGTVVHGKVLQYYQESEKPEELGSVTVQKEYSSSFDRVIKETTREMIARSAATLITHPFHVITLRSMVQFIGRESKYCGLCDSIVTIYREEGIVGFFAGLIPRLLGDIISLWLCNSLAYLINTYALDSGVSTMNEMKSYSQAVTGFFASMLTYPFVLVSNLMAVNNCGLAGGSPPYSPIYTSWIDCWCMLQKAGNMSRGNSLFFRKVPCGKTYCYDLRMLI
# UniProt Q6ZPZ3: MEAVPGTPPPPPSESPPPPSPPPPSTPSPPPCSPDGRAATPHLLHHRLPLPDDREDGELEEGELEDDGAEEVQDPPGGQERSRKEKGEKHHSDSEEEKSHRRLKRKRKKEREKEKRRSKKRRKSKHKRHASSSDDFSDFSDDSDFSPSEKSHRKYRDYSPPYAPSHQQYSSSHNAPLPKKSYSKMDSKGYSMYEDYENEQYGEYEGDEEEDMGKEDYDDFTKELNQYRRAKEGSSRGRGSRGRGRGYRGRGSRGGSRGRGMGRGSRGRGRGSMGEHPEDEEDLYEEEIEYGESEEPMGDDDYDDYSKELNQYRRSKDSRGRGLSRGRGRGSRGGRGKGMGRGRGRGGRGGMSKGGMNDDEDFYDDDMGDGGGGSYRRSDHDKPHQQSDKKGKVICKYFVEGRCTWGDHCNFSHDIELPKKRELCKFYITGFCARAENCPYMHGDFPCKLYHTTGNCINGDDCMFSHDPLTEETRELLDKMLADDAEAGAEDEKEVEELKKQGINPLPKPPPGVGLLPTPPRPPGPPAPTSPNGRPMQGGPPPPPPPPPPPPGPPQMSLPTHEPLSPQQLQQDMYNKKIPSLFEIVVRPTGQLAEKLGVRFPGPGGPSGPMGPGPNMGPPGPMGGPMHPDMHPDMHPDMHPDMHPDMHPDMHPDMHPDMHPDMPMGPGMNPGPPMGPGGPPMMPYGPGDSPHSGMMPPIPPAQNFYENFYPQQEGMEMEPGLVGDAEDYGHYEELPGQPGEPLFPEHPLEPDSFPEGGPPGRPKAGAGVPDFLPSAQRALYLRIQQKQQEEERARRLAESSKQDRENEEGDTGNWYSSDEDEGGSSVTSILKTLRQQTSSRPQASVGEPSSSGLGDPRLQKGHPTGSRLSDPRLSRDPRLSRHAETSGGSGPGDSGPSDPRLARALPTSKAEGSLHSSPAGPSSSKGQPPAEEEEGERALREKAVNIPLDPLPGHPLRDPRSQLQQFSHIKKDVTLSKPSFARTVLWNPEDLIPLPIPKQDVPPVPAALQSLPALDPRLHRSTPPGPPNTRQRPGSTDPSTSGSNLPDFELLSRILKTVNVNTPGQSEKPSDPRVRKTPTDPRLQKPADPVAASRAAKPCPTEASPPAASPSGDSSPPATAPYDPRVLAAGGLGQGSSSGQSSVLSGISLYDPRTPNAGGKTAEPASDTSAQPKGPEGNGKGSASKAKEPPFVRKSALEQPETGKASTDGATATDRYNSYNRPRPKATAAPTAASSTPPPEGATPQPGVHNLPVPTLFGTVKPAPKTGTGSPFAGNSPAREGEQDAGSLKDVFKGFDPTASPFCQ
# UniProt Q7TPV4: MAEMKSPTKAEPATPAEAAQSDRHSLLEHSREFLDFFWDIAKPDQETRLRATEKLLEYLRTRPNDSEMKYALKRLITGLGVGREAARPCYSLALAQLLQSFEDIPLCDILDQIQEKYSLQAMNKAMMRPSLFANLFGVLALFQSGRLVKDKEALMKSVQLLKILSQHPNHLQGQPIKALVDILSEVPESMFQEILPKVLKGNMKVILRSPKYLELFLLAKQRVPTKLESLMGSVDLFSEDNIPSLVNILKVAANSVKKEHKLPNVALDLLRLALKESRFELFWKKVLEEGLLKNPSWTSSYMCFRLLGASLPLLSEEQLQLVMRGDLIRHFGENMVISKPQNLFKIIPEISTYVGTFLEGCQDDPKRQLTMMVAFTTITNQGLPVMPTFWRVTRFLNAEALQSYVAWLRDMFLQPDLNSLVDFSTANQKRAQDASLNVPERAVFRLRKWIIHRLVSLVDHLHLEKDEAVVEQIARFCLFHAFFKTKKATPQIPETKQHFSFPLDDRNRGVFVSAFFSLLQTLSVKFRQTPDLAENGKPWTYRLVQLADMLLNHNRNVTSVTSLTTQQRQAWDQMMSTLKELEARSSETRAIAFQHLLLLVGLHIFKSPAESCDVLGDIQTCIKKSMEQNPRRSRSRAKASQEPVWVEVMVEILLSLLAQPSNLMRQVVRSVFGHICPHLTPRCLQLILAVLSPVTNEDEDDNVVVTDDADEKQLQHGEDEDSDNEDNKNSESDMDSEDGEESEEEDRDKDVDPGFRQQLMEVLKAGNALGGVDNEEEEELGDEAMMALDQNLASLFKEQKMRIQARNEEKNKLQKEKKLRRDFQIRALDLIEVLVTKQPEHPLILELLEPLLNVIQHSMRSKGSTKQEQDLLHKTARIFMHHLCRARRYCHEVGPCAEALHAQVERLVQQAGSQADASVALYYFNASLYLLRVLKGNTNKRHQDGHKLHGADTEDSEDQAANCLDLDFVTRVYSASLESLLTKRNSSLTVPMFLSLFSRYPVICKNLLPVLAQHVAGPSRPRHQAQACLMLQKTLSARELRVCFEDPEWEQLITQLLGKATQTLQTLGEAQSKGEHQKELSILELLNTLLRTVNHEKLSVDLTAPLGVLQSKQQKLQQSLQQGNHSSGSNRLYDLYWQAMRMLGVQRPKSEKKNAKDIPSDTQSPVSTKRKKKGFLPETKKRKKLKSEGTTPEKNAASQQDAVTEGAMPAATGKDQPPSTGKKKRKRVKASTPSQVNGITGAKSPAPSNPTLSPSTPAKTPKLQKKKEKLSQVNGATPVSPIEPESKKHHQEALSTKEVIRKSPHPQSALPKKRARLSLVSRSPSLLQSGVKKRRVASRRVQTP
# UniProt Q6ZQH8: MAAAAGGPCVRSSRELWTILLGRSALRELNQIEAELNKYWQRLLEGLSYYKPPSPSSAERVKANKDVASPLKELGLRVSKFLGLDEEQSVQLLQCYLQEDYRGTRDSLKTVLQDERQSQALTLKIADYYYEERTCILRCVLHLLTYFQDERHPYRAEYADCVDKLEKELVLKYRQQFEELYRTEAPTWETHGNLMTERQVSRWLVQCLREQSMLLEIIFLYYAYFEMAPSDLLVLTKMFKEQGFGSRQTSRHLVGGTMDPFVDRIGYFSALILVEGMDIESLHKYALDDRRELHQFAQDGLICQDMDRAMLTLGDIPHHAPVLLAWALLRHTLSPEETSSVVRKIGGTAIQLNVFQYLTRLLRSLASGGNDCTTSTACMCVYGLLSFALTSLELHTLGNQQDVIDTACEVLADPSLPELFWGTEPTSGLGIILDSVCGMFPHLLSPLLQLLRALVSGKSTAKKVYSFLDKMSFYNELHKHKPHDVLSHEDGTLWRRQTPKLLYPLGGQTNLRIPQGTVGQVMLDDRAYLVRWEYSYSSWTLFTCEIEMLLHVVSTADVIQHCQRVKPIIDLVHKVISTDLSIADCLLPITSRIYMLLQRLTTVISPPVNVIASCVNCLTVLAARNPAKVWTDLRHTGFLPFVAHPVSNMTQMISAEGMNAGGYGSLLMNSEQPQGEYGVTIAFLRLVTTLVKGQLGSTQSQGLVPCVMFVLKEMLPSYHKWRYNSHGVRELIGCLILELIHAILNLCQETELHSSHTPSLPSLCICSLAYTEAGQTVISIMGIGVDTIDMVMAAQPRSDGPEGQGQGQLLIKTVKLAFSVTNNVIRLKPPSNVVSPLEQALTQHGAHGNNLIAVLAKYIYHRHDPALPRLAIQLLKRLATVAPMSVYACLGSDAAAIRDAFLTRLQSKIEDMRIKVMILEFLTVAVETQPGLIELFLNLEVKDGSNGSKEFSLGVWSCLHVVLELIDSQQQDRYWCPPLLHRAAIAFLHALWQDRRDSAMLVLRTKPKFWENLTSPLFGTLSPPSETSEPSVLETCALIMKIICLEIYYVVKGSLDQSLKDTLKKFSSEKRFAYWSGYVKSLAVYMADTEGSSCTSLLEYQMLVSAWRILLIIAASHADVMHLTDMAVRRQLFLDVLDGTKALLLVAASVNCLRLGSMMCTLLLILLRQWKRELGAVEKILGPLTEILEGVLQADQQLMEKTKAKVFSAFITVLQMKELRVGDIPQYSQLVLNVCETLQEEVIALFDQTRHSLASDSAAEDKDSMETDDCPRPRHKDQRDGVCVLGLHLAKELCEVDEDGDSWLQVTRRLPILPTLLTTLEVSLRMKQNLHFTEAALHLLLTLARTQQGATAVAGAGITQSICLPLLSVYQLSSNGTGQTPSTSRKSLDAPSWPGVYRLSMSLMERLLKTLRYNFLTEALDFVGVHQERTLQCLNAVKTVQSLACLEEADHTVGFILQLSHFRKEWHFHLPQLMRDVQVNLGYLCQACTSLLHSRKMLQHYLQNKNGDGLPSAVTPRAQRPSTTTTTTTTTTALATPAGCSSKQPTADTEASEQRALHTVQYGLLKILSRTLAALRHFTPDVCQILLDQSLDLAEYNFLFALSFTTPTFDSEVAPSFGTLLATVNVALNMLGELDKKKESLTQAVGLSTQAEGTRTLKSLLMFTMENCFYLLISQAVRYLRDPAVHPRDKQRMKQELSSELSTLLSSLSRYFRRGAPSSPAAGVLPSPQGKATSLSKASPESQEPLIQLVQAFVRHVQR
# UniProt Q6ZWX6, whole entry: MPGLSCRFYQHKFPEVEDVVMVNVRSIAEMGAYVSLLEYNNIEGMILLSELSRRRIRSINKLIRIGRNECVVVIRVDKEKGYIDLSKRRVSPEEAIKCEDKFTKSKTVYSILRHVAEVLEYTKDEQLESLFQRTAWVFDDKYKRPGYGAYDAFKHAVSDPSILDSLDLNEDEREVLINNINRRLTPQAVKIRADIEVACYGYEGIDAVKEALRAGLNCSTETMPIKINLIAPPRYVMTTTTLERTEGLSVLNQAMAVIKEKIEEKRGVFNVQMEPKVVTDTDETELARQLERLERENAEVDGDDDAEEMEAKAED
# UniProt Q80V26: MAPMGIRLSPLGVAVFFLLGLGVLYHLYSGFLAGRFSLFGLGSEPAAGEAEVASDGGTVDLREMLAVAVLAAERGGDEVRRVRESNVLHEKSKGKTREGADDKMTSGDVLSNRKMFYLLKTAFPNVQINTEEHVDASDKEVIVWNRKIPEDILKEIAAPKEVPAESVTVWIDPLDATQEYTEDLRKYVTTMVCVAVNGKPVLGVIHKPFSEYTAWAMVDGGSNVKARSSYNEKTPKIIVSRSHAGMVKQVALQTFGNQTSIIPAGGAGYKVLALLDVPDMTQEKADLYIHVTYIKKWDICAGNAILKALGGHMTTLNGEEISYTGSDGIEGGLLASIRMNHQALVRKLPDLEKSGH
# UniProt Q7TMB3: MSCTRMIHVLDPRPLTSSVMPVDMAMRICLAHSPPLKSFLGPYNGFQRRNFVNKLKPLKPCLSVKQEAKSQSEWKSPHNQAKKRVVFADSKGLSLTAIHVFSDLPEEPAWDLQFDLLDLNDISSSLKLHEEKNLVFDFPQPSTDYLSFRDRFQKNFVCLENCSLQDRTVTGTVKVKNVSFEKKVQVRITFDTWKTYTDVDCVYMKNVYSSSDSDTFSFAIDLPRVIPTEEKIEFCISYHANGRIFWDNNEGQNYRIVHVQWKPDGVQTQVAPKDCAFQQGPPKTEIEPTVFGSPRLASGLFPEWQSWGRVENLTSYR
# UniProt Q7TSQ8: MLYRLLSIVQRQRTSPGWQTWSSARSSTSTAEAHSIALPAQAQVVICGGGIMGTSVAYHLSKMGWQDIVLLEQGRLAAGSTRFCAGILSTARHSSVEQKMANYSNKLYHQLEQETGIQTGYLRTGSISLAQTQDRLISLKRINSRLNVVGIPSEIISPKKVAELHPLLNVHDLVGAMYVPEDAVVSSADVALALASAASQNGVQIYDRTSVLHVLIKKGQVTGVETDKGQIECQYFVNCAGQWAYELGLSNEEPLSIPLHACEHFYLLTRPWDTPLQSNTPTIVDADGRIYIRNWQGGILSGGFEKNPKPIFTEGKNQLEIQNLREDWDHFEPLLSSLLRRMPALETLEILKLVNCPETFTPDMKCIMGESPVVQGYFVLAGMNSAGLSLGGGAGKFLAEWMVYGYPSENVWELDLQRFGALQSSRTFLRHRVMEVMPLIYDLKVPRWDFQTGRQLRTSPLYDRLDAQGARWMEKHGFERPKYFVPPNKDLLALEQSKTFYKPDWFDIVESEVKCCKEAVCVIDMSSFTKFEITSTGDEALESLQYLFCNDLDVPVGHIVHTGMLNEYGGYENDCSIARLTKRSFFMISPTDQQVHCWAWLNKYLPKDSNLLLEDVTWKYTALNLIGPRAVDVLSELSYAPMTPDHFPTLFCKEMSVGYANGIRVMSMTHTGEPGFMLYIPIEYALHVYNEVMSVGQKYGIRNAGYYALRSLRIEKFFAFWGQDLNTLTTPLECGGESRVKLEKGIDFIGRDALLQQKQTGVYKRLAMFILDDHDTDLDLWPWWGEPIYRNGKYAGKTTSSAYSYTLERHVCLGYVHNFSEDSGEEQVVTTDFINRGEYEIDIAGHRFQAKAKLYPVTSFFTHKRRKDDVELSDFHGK
# The list shows a part of the results. Small differences around the control level are noise.
# Compound: CN[C@@H]1C[C@H]2O[C@@](C)([C@@H]1OC)n1c3ccccc3c3c4c(c5c6ccccc6n2c5c31)C(=O)NC4 [staurosporine]
# Assay: log2 fold change of tryptic peptide abundance, ligand vs vehicle (limited proteolysis) (log2 ratio); higher = more trypsin-susceptible (destabilized)
# Details: ligand concentration: 20 uM; sample: mouse liver crude lysate; replicate design: treated separately
row,Target,log2 fold change
1,"UniProt Q791V5 (peptide sequence: SAATLITHPFHVITLR, peptide start residue: 132)",-0.822
2,"UniProt Q78JT3 (peptide sequence: ELPFPLNTR, peptide start residue: 167)",0.118
3,"UniProt Q80U22 (peptide sequence: GQEGPGDMDR, peptide start residue: 1208)",0.635
4,"UniProt Q6ZPZ3 (peptide sequence: KDVTLSKPSFAR, peptide start residue: 971)",0.308
5,"UniProt Q7TN31 (peptide sequence: NAESDNQELR, peptide start residue: 60)",-0.48
6,"UniProt Q7JJ13 (peptide sequence: GRIGIDEDDKGPR, peptide start residue: 563)",-0.328
7,"UniProt Q7TMV1 (peptide sequence: ITPCNHYFHALCLR, peptide start residue: 560)",0.664
8,"UniProt Q78T54 (peptide sequence: AALNALQPPEFR, peptide start residue: 7)",0.14
9,"UniProt Q7TPV4 (peptide sequence: EHKLPNVALDLLR, peptide start residue: 259)",0.145
10,"UniProt Q6ZQH8 (peptide sequence: CVLHLLTYFQDERHPYR, peptide start residue: 139)",-0.396
11,"UniProt Q80TE4 (peptide sequence: FSFITLGAK, peptide start residue: 829)",-0.189
12,"UniProt Q6ZWX6 (peptide sequence: HVAEVLEYTKDEQLESLFQR, peptide start residue: 114)",-0.215
13,"UniProt Q80UY1 (peptide sequence: YYGTSMHER, peptide start residue: 66)",-0.395
14,"UniProt Q6ZPI3 (peptide sequence: AQSIYGIPHSTLEYK, peptide start residue: 371)",-0.00327
15,"UniProt Q80UG1 (peptide sequence: SAPPGDGAAEALLK, peptide start residue: 6)",-0.241
16,"UniProt Q7M6Y3 (peptide sequence: SLITTHHLMVYGNER, peptide start residue: 78)",-0.364
17,"UniProt Q80U70 (peptide sequence: NSESLHQENKPGSVKPAQTIAVK, peptide start residue: 383)",0.307
18,"UniProt Q80V26 (peptide sequence: EVIVWNR, peptide start residue: 140)",-0.223
19,"UniProt Q7TT16 (peptide sequence: LLGGCVPLSHQVAGHMYGK, peptide start residue: 25)",0.407
20,"UniProt Q80UK8 (peptide sequence: EKPSGWSQICKDPSYK, peptide start residue: 1149)",-0.136
21,"UniProt Q7TMB3 (peptide sequence: LKPLKPCLSVK, peptide start residue: 55)",0.567
22,"UniProt Q80UM7 (peptide sequence: AAAAEGARPLER, peptide start residue: 10)",-0.253
23,"UniProt Q7TMA2 (peptide sequence: SPHHALGLSSR, peptide start residue: 597)",-0.214
24,"UniProt Q7TSQ8 (peptide sequence: RKDDVELSDFHGK, peptide start residue: 866)",0.237
25,"UniProt Q75N73 (peptide sequence: DQEEGVTEK, peptide start residue: 265)",-0.171
26,"UniProt Q6ZQJ5 (peptide sequence: VANAVLALPNLK, peptide start residue: 854)",-0.0677
27,"UniProt Q6WVG3 (peptide sequence: RLGAPQQPGPGPPPPHSR, peptide start residue: 128)",0.113
28,"UniProt Q6ZWR6 (peptide sequence: AIHEYLQK, peptide start residue: 6948)",-0.474
29,"UniProt Q7TMB8 (peptide sequence: LVHPTDKYSNK, peptide start residue: 416)",0.512
30,"UniProt Q7TQK1 (peptide sequence: VFSVIHSNDPVAR, peptide start residue: 107)",0.565

# As a working copy, part of the list above:
row,Target,log2 fold change
19,"UniProt Q7TT16 (peptide sequence: LLGGCVPLSHQVAGHMYGK, peptide start residue: 25)",0.407
20,"UniProt Q80UK8 (peptide sequence: EKPSGWSQICKDPSYK, peptide start residue: 1149)",-0.136
21,"UniProt Q7TMB3 (peptide sequence: LKPLKPCLSVK, peptide start residue: 55)",0.567
22,"UniProt Q80UM7 (peptide sequence: AAAAEGARPLER, peptide start residue: 10)",-0.253
23,"UniProt Q7TMA2 (peptide sequence: SPHHALGLSSR, peptide start residue: 597)",-0.214
24,"UniProt Q7TSQ8 (peptide sequence: RKDDVELSDFHGK, peptide start residue: 866)",0.237
25,"UniProt Q75N73 (peptide sequence: DQEEGVTEK, peptide start residue: 265)",-0.171
26,"UniProt Q6ZQJ5 (peptide sequence: VANAVLALPNLK, peptide start residue: 854)",-0.0677
